Experimental data: paper PMC4365668, “The zinc finger proteins ZNF644 and WIZ regulate the G9a/GLP complex for gene repression”
No constants are given. Whether binding was seen depends on the method and setting. Binding seen in cells or lysates may run through a third protein. A yes stands for co-enrichment or nearness to the bait. Other partners may have been found. For part of these data: Sequences can lack the tags named with a protein. Values belong to the molecule of their own block, whether it stands above or below them.

Columns and labels:
Test in all cases: affinity purification with mass spectrometry; tandem affinity purification from 293T cells stably expressing the SFB-tagged bait; lysis in NETN300 (300 mM NaCl); streptavidin agarose, elution with 2 mM biotin, then S beads; SDS-PAGE, silver staining and mass spectrometry
[1] = molecular target: T1, SFB-tagged ZNF644 (bait of the reciprocal affinity purification) (human) (UniProt Q9H582)
T1 sequence: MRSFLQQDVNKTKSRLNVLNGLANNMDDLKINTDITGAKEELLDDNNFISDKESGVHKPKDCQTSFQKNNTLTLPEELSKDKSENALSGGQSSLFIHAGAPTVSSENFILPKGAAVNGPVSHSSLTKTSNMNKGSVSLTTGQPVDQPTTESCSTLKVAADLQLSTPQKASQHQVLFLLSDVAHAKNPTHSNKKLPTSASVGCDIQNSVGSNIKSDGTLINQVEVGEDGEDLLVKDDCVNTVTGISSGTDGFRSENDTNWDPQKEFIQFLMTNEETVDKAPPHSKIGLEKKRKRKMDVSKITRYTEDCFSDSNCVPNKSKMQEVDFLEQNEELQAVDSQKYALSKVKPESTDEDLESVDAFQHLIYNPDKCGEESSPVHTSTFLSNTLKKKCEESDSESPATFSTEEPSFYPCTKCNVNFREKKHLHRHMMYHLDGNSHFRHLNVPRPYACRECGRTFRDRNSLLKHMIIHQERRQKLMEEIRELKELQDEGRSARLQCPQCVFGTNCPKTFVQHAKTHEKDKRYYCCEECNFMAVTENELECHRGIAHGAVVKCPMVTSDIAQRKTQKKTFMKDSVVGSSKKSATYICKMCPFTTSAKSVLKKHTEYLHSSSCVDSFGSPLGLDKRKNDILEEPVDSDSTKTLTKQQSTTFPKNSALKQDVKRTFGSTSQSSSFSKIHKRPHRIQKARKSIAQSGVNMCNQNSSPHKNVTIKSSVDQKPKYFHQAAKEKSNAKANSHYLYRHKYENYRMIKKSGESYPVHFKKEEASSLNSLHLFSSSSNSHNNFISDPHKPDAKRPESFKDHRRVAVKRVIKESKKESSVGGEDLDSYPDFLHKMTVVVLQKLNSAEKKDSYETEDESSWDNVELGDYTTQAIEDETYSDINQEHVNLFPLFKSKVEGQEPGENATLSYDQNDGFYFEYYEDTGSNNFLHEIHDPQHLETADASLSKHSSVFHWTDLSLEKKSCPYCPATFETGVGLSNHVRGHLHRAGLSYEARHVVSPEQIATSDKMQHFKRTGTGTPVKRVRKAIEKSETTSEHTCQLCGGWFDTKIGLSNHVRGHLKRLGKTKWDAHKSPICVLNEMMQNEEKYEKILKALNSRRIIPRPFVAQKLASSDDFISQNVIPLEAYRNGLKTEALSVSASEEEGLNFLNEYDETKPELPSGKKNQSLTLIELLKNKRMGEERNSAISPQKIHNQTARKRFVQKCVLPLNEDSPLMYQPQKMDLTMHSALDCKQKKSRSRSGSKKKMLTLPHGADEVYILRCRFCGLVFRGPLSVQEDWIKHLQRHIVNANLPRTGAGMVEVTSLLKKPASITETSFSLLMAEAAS

[2] = molecular target: SFB-tagged G9a (wild type) (UniProt Q96KQ7)
[3] = molecular target: T2, SFB-tagged G9a (wild type), Q96KQ7; conditions: remark: other sources report otherwise
T2 chain: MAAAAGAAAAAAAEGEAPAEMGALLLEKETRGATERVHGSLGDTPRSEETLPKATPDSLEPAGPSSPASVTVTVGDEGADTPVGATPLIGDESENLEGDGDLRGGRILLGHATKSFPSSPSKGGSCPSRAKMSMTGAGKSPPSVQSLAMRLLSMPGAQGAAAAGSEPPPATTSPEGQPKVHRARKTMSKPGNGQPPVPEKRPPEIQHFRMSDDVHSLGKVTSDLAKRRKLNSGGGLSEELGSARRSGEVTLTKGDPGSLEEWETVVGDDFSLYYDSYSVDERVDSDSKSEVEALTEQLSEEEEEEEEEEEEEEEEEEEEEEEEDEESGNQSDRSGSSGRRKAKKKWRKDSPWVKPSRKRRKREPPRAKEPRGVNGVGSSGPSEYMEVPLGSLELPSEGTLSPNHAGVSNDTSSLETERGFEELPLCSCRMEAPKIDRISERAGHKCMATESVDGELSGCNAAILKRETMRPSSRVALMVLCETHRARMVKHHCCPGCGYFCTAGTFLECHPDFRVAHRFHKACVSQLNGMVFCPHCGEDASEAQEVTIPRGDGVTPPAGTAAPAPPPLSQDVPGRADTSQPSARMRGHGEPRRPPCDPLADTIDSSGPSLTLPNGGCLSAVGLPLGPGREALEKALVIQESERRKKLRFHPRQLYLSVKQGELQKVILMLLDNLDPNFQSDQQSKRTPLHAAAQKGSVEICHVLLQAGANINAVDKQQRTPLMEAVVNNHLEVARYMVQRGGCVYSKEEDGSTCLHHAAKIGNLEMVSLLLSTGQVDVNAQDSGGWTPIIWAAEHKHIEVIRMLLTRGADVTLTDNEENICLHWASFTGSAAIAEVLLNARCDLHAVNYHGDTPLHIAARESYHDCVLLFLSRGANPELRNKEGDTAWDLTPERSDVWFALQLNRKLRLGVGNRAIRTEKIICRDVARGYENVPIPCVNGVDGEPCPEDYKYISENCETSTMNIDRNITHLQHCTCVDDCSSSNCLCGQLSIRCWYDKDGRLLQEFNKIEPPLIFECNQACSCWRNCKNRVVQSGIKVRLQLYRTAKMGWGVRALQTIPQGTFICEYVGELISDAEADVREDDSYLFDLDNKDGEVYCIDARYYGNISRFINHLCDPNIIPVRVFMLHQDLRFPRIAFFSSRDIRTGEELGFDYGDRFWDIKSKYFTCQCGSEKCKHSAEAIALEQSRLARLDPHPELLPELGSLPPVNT

- binding [1]: binds
Molecule: G9a (endogenous) (from UniProt Q96KQ7 1-1210) (enzyme)

- binding [2]: binds
B1: ZNF644 (endogenous) (protein, UniProt Q9H582 1-1327)
chain: MRSFLQQDVNKTKSRLNVLNGLANNMDDLKINTDITGAKEELLDDNNFISDKESGVHKPKDCQTSFQKNNTLTLPEELSKDKSENALSGGQSSLFIHAGAPTVSSENFILPKGAAVNGPVSHSSLTKTSNMNKGSVSLTTGQPVDQPTTESCSTLKVAADLQLSTPQKASQHQVLFLLSDVAHAKNPTHSNKKLPTSASVGCDIQNSVGSNIKSDGTLINQVEVGEDGEDLLVKDDCVNTVTGISSGTDGFRSENDTNWDPQKEFIQFLMTNEETVDKAPPHSKIGLEKKRKRKMDVSKITRYTEDCFSDSNCVPNKSKMQEVDFLEQNEELQAVDSQKYALSKVKPESTDEDLESVDAFQHLIYNPDKCGEESSPVHTSTFLSNTLKKKCEESDSESPATFSTEEPSFYPCTKCNVNFREKKHLHRHMMYHLDGNSHFRHLNVPRPYACRECGRTFRDRNSLLKHMIIHQERRQKLMEEIRELKELQDEGRSARLQCPQCVFGTNCPKTFVQHAKTHEKDKRYYCCEECNFMAVTENELECHRGIAHGAVVKCPMVTSDIAQRKTQKKTFMKDSVVGSSKKSATYICKMCPFTTSAKSVLKKHTEYLHSSSCVDSFGSPLGLDKRKNDILEEPVDSDSTKTLTKQQSTTFPKNSALKQDVKRTFGSTSQSSSFSKIHKRPHRIQKARKSIAQSGVNMCNQNSSPHKNVTIKSSVDQKPKYFHQAAKEKSNAKANSHYLYRHKYENYRMIKKSGESYPVHFKKEEASSLNSLHLFSSSSNSHNNFISDPHKPDAKRPESFKDHRRVAVKRVIKESKKESSVGGEDLDSYPDFLHKMTVVVLQKLNSAEKKDSYETEDESSWDNVELGDYTTQAIEDETYSDINQEHVNLFPLFKSKVEGQEPGENATLSYDQNDGFYFEYYEDTGSNNFLHEIHDPQHLETADASLSKHSSVFHWTDLSLEKKSCPYCPATFETGVGLSNHVRGHLHRAGLSYEARHVVSPEQIATSDKMQHFKRTGTGTPVKRVRKAIEKSETTSEHTCQLCGGWFDTKIGLSNHVRGHLKRLGKTKWDAHKSPICVLNEMMQNEEKYEKILKALNSRRIIPRPFVAQKLASSDDFISQNVIPLEAYRNGLKTEALSVSASEEEGLNFLNEYDETKPELPSGKKNQSLTLIELLKNKRMGEERNSAISPQKIHNQTARKRFVQKCVLPLNEDSPLMYQPQKMDLTMHSALDCKQKKSRSRSGSKKKMLTLPHGADEVYILRCRFCGLVFRGPLSVQEDWIKHLQRHIVNANLPRTGAGMVEVTSLLKKPASITETSFSLLMAEAAS

- binding [3]: binds
B2: GLP (endogenous), Q9H9B1 1-1298 (enzyme)
chain: MAAADAEAVPARGEPQQDCCVKTELLGEETPMAADEGSAEKQAGEAHMAADGETNGSCENSDASSHANAAKHTQDSARVNPQDGTNTLTRIAENGVSERDSEAAKQNHVTADDFVQTSVIGSNGYILNKPALQAQPLRTTSTLASSLPGHAAKTLPGGAGKGRTPSAFPQTPAAPPATLGEGSADTEDRKLPAPGADVKVHRARKTMPKSVVGLHAASKDPREVREARDHKEPKEEINKNISDFGRQQLLPPFPSLHQSLPQNQCYMATTKSQTACLPFVLAAAVSRKKKRRMGTYSLVPKKKTKVLKQRTVIEMFKSITHSTVGSKGEKDLGASSLHVNGESLEMDSDEDDSEELEEDDGHGAEQAAAFPTEDSRTSKESMSEADRAQKMDGESEEEQESVDTGEEEEGGDESDLSSESSIKKKFLKRKGKTDSPWIKPARKRRRRSRKKPSGALGSESYKSSAGSAEQTAPGDSTGYMEVSLDSLDLRVKGILSSQAEGLANGPDVLETDGLQEVPLCSCRMETPKSREITTLANNQCMATESVDHELGRCTNSVVKYELMRPSNKAPLLVLCEDHRGRMVKHQCCPGCGYFCTAGNFMECQPESSISHRFHKDCASRVNNASYCPHCGEESSKAKEVTIAKADTTSTVTPVPGQEKGSALEGRADTTTGSAAGPPLSEDDKLQGAASHVPEGFDPTGPAGLGRPTPGLSQGPGKETLESALIALDSEKPKKLRFHPKQLYFSARQGELQKVLLMLVDGIDPNFKMEHQNKRSPLHAAAEAGHVDICHMLVQAGANIDTCSEDQRTPLMEAAENNHLEAVKYLIKAGALVDPKDAEGSTCLHLAAKKGHYEVVQYLLSNGQMDVNCQDDGGWTPMIWATEYKHVDLVKLLLSKGSDINIRDNEENICLHWAAFSGCVDIAEILLAAKCDLHAVNIHGDSPLHIAARENRYDCVVLFLSRDSDVTLKNKEGETPLQCASLNSQVWSALQMSKALQDSAPDRPSPVERIVSRDIARGYERIPIPCVNAVDSEPCPSNYKYVSQNCVTSPMNIDRNITHLQYCVCIDDCSSSNCMCGQLSMRCWYDKDGRLLPEFNMAEPPLIFECNHACSCWRNCRNRVVQNGLRARLQLYRTRDMGWGVRSLQDIPPGTFVCEYVGELISDSEADVREEDSYLFDLDNKDGEVYCIDARFYGNVSRFINHHCEPNLVPVRVFMAHQDLRFPRIAFFSTRLIEAGEQLGFDYGERFWDIKGKLFSCRCGSPKCRHSSAALAQRQASAAQEAQEDGLPDTSSAAAADPL
